Data from PubChem BioAssay AID2685 (National Center for Advancing Translational Sciences (NCATS), 2010).
The list shows a part of the results. Further columns of the screen follow, without active or inactive calls. Most of these compounds were active or inconclusive in the main read-out, so they are no random draw. Words in brackets tell the shape of the fitted curve; partial curves, single points and poor fits give uncertain potencies.

Experiment: qHTS Assay for Lipid Storage Modulators in Drosophila S3 Cells;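 for cell number change: cells counted by Cell Tracker Red CMTPX staining in the red channel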
Conditions: BODIPY lipid droplet fluorescence, 18-24 h; for cell number change: measured here: cell count max response, cells fed with added oleic acid
How it was run: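 Laser-scanning cytometry quantifies lipid droplet accumulation (500–530 nm total intensity; droplet/cell object ratio) in oleic acid-fed (400 uM added) Drosophila S3 cells treated with a concentration series. 20 uM Triacsin C defined 100% inhibition.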

[1] = measured here: cell number channel AC50, cells fed with added oleic acid
[2] = measured here: lipid fluorescence (Fed channel) AC50, cells fed with added oleic acid

Compound | cell number change | AC50 [1] | AC50 [2]
O=C1CC(N2CCN(C/C=C/c3ccccc3)CC2)C(=O)N1Cc1cccs1 (stereo not drawn) | -74.3% | 20.6 µM [falling, partial curve] | 29.1 µM [falling, single point]
COc1cccc2c(=O)c(C/C=C(/C)Cl)c(C)[nH]c12 | -12% | – | 0.517 µM [falling, single point]
O=C(c1ccc2snnc2c1)N1CCN(c2ccccn2)CC1 | -31.6% | 0.517 µM [falling, full curve, poor fit] | 0.082 µM [falling, full curve, poor fit]
O=C(NS(=O)(=O)Oc1ccc(F)c(Cl)c1)OC[C@@H]1CCCN2CCCCC12 (stereo partly drawn) | 10.6% | – | 3.66 µM [rising, partial curve, poor fit]
CC(OC(=O)c1cc(-c2cccnc2)nc2ccccc12)C(=O)Nc1ccc2ccccc2c1 (stereo not drawn) | 31.6% | 2.31 µM [rising, full curve] | 0.231 µM [rising, full curve]
O=C(c1cn(Cc2ccccc2)nc1-c1cccnc1)N1CCc2ccccc2C1 | -6.12% | 0.103 µM [falling, partial curve, poor fit] | 20.6 µM [rising, partial curve, poor fit]
Cc1ccc(OCC(=O)NCc2cccs2)cc1 | -30.1% | 0.103 µM [falling, full curve] | 29.1 µM [falling, partial curve]
O=C(c1ccc(S(=O)(=O)N2CCOCC2)cc1)N1CCN(c2ccccc2F)CC1 | – | – | 6.51 µM [falling, single point]
Cc1ccc(-c2[nH]c(=S)[nH]c(=O)c2C#N)cc1 | -21.2% | 6.51 µM [falling, single point] | 6.51 µM [falling, partial curve, poor fit]
CCOc1ccccc1N1CCN(C(=O)C(F)(F)F)CC1 | 15.9% | – | 18.4 µM [falling, partial curve]
Cn1ccnc1C(=O)c1cc(SCC(=O)NC2CC2)nc2ccccc12 | – | 4.11 µM [rising, single point] | –
O=C(NCCO)c1cc2c([nH]c3ccccc32)c(-c2ccc(F)cc2)n1 | -11.7% | – | 5.17 µM [rising, full curve]
Nn1cc(-c2ccccc2)nc1SCC(=O)NCC1CCCO1 (stereo not drawn) | 112% | 23.1 µM [rising, single point] | –
CC(C)Cn1c(NCCO)nc2ccccc21 | -38.7% | 1.64 µM [falling, full curve] | –
O=C(CN1CCC(n2nnc3cc(F)ccc32)CC1)Nc1ccc2c(c1)CCC2 | – | 2.31 µM [rising, partial curve] | –
COc1ccc(NC(=S)N(CCCN2CCOCC2)Cc2cn(C)c3ccccc23)cc1 | -0.854% | – | 0.58 µM [rising, full curve, poor fit]
CCc1sc(C(=O)N2CCc3cc(OC)c(OC)cc3C2CC(=O)O)cc1C (stereo not drawn) | 2.46% | – | 2.31 µM [falling, single point]
CC(C)C(=O)NC(=S)Nc1ccc(S(=O)(=O)N2CCCC2)cc1 | -9.32% | – | 0.517 µM [falling, full curve]
CCC(C)(C)NC(=O)C(c1cccnc1)N(C(=O)c1csnn1)c1ccc(C)cc1 (stereo not drawn) | 4.35% | – | –
CC(NC(=O)c1ccc(CS(C)(=O)=O)cc1)C1CC2CCC1C2 (stereo not drawn) | 7.92% | – | 0.103 µM [falling, single point]

Compound | cell number change | AC50 [1] | AC50 [2]
Cc1ccc(OCC(=O)NC2CCS(=O)(=O)C2)cc1 (stereo not drawn) | -146% | 0.731 µM [falling, single point] | 0.00517 µM [falling, full curve, poor fit]
CCn1c(SCC(=O)N2CCN(c3ccc(F)cc3)CC2)nnc1-c1ccncc1 | 3.64% | – | 0.0731 µM [falling, full curve, poor fit]
Cc1noc(C)c1S(=O)(=O)NCCCN1CCN(Cc2ccccc2)CC1 | -3.64% | – | 0.00461 µM [falling, full curve, poor fit]
CN(CCOc1ccc(Cl)cc1)c1ccc(S(=O)(=O)N2CCCCC2)cn1 | 15.6% | – | 0.13 µM [rising, full curve, poor fit]
COc1cccc(NC(=O)CSc2nc3ccccc3c(=O)n2CCCC(=O)NCC2CCCO2)c1 (stereo not drawn) | -19.4% | – | 29.1 µM [falling, single point]
CC(=O)Nc1cccc(N2C(=O)CCC2=O)c1 | -42.4% | 2.91 µM [falling, full curve] | 6.51 µM [falling, single point]
O=C(NCc1nnnn1-c1ccc(F)cc1)C1CC(=O)N(c2ccc(F)cc2)C1 (stereo not drawn) | 27.8% | – | –
O=C(NNc1nc2c(F)cc(F)cc2s1)C1COc2ccccc2O1 (stereo not drawn) | -10.6% | 6.51 µM [rising, partial curve, poor fit] | –
COc1ccc(Cl)cc1NC(=O)CN(C)C(=O)CCNC(=O)c1ccccc1OC | -7.57% | 0.517 µM [rising, full curve, poor fit] | 3.66 µM [falling, full curve, poor fit]
O=C(O)c1ccccc1C(=O)Nc1ccccn1 | -204% | 23.1 µM [falling, partial curve] | 20.6 µM [falling, partial curve]
COCCNC(=S)Nc1ccccc1Cc1ccccc1 | 20.1% | – | 29.1 µM [rising, single point]
COc1ccc(S(=O)(=O)Cc2ccc(C(=O)N3CCc4ccccc4C3)o2)cc1 | 12.7% | – | 2.06 µM [rising, full curve, poor fit]
Cc1ccc(N2C(=O)C3NN=C(C(=O)OCc4ccccc4)C3C2=O)c(C)c1 (stereo not drawn) | -6.11% | – | 0.0259 µM [falling, full curve, poor fit]
Cc1ccc(N=Nc2c(N)nn(-c3ccccc3)c2N)cc1 | -23.3% | 0.259 µM [falling, full curve, poor fit] | 11.6 µM [falling, partial curve, poor fit]
CCCOc1ccc(-c2nnc(-c3ccncc3)o2)cc1 | -13.5% | – | –
CC(=O)c1ccc(-n2nnnc2SCC(=O)Nc2cccc(NC(=O)c3ccco3)c2)cc1 | -28.6% | – | 29.1 µM [falling, single point]
CCN(CC)CCCNC(=O)Cn1ncc2c(=O)oc3ccc(C)cc3c21 | 9.02% | – | 29.1 µM [falling, single point]
CCCCCCCCOC(=O)c1ccc(N)cc1 | -28.2% | – | 16.4 µM [falling, partial curve]
COc1ccc(NS(=O)(=O)c2cc(NC(=O)/C=C/c3cc(OC)c(OC)c(OC)c3)ccc2N2CCCCC2)cc1 | 3.85% | – | 1.84 µM [rising, partial curve]
Cc1ccc(C(=O)N/C(=C\c2ccc3c(c2)OCO3)C(=O)Nc2ccc(C(=O)O)cc2)cc1 | 18% | – | –

One compound at a time, from the list above.
COc1ccc(Cl)cc1NC(=O)CN(C)C(=O)CCNC(=O)c1ccccc1OC reads cell number change: -7.57%; AC50 [1]: 0.517 µM [rising, full curve, poor fit]; AC50 [2]: 3.66 µM [falling, full curve, poor fit]
Cc1ccc(-c2[nH]c(=S)[nH]c(=O)c2C#N)cc1 reads cell number change: -21.2%; AC50 [1]: 6.51 µM [falling, single point]; AC50 [2]: 6.51 µM [falling, partial curve, poor fit]

Next structures

Compound | cell number change | AC50 [1] | AC50 [2]
CCOC(=O)C(NC(=O)NC1CCCCC1)(c1ccccc1)C(F)(F)F (stereo not drawn) | – | – | 29.1 µM [falling, single point]
S=c1[nH]nc(Cc2ccccc2)n1-c1ccc(Cl)cc1 | -7.69% | – | 1.3 µM [falling, full curve]
COc1ccc(-n2nc3c(c2NC(=O)C2CC2)CS(=O)C3)cc1 (stereo not drawn) | 1.29% | – | 29.1 µM [falling, single point]
CCC(C(=O)NCCCN(CC)Cc1ccccc1)n1nc(C)c2sc3ccccc3c2c1=O (stereo not drawn) | 46.8% | 0.731 µM [rising, partial curve, poor fit] | 6.51 µM [rising, single point]
O=C(c1cc(-c2ccc3c(c2)OCO3)on1)N1CCCCC1 | 24.2% | – | 1.16 µM [rising, single point]
COc1ccccc1OC(C)C(=O)N1CCN(Cc2ccc3c(c2)OCO3)CC1 (stereo not drawn) | 4.7% | – | 20.6 µM [rising, partial curve]
CCOC(=O)C(=N/O)/C(C)=N/NC(=O)C(=O)Nc1cc(Cl)ccc1Cl | -22.5% | – | –
N#CC(CC(=O)c1ccc(F)cc1)c1ccc2c(c1)OCO2 (stereo not drawn) | 16.3% | – | 0.0651 µM [falling, full curve, poor fit]
Cc1ccc(S(=O)(=O)Nc2ccc(S(=O)(=O)NC(C)(C)C)cc2)cc1 | 6.42% | – | 6.51 µM [rising, single point]
COc1ccc(/C=C(/NC(=O)c2ccc([N+](=O)[O-])cc2)C(=O)NCCCN(C)C)cc1 | 14.6% | – | 23.1 µM [rising, single point]
COc1ccc(N2CC(C(=O)Nc3ccc(N4CCOCC4)cc3)CC2=O)cc1 (stereo not drawn) | 32.7% | 5.8 µM [rising, full curve, poor fit] | –
CCO/C(C)=C1\C(=O)N(CC)c2ccccc21 | -5.59% | – | –
Cc1cc(C)n2nc(SC(C)C(=O)NC3CCCCC3C)nc2n1 (stereo not drawn) | -13% | – | 20.6 µM [falling, single point]
S=C(NCC1COc2ccccc2O1)Nc1ccc(Br)cc1 (stereo not drawn) | -32% | 29.1 µM [falling, single point] | 23.1 µM [falling, partial curve]
CCCNC(=O)c1ccccc1C(=O)NC1(C(=O)NCCC)CCCC1 | -21.9% | – | –
O=C1OC(Nc2ccc3ncccc3c2)c2ccccc21 (stereo not drawn) | – | – | 6.51 µM [rising, single point]
Cc1cccc(N2C(=O)CC(Sc3nnc(C)s3)C2=O)c1 (stereo not drawn) | -71% | 29.1 µM [falling, single point] | 29.1 µM [falling, single point]
CC/C(=N\OC(=O)c1ccc(OC(C)C)cc1)c1ccc(C)cc1 | -74% | 29.1 µM [falling, single point] | –
